Experimental findings from publication PMC4886532, “A highly soluble, non-phototoxic, non-fluorescent blebbistatin derivative” (Scientific Reports, 2016) are described below.

A short description of the series: Fluorescence emission spectra. Format: physicochemical. To be noted: λexc = 350 nm, 5 μM, assay buffer 0.1% DMSO.

On to `Cc1ccc2c(c1)C(=O)C1(O)CCN(c3ccccc3)C1=N2` (stereo not drawn) [blebbistatin], for which the Fluorescence result is reported as “high fluorescence”.

Turning to `Cc1ccc2c(c1)C(=O)[C@]1(O)CCN(c3ccc(N)cc3)C1=N2` [para-aminoblebbistatin], the Fluorescence entry is listed as “non-fluorescent”.

In the case of `Cc1ccc2c(c1)C(=O)[C@]1(O)CCN(c3ccc([N+](=O)[O-])cc3)C1=N2` [para-nitroblebbistatin], the Fluorescence entry is given as “non-fluorescent”.
